Reference: patent US6762284
No constants are given. Whether binding was seen depends on the method and setting. Some binding calls cover weakened binding; strength is not graded here.

Amino acid sequences for entries named in this document (tags omitted). A change or cut given only in a name is not applied to a line headed by its entry.
UniProt P04386: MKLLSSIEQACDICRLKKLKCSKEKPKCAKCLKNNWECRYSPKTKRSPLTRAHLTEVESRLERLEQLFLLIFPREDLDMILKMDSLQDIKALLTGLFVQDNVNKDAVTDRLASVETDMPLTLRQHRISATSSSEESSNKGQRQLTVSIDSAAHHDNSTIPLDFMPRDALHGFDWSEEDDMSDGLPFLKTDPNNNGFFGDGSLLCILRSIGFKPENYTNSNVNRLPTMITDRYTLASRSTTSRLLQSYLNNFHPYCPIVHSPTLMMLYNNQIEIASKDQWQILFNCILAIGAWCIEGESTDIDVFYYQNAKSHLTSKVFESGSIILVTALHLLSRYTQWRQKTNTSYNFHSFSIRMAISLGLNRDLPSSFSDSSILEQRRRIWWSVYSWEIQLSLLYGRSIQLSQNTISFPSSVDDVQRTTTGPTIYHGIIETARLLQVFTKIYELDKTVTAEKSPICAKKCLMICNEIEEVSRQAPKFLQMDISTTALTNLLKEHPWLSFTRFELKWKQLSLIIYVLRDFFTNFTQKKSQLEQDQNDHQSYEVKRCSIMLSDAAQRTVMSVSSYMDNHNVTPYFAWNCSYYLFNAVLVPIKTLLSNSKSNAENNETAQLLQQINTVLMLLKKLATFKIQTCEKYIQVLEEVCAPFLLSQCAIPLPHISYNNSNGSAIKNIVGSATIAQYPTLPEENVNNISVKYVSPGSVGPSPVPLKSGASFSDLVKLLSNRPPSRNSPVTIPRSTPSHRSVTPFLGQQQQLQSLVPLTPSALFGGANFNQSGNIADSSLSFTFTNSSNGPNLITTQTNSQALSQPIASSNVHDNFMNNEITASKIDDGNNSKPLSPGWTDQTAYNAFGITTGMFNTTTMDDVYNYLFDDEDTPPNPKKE
UniProt P27986: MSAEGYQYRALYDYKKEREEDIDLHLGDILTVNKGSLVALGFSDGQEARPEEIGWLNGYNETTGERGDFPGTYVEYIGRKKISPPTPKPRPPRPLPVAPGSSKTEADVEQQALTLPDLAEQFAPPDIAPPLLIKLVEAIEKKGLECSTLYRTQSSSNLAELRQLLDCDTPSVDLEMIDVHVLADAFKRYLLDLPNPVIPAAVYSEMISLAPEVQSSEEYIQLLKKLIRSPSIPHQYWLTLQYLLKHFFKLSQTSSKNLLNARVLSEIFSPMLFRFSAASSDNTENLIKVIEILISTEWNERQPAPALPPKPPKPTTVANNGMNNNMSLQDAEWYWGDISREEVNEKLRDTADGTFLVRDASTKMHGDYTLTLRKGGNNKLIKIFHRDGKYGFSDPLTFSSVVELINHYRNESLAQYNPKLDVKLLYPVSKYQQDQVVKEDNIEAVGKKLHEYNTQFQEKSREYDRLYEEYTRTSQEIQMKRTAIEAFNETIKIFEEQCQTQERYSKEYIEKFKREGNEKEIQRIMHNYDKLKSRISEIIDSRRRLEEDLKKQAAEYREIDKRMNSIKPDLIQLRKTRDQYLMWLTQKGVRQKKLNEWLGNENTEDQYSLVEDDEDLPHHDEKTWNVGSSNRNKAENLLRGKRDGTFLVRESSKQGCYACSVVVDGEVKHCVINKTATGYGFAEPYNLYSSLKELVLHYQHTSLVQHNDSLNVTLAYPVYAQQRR

Tests used:
Test in all cases: yeast two-hybrid
[1] = biological target: p85 N-terminal SH2 and inter SH2 domain (AA 263-620) (human) (UniProt P04386+P27986)
[2] = biological target: p85 SH2 domains and inter SH2 domain (AA 263-727) (human) (UniProt P04386+P27986)
[3] = biological target: p85 full length (AA 6-727) (human) (UniProt P04386+P27986)

Measured: binding

B1: PIKAP AA 517-589 (protein, not shown: large carriers)
chain: DRLIALKAVTNFGVPVEVFDSEEAEIFQKKLDETTRLLRELQEAQNERLSTRPPGNMICLLGPSSEKCILLNK
binds: [1] | [2] | [3]
